For at least one compound, name, drawing or mass did not settle the structure.
What was measured:
S. aureus = test: Paper diffusion anti-microbial assay against S. aureus; format: cell-based, Staphylococcus aureus
[1] = system: ampicillin-resistant E. coli; test: Paper diffusion anti-microbial assay against ampicillin-resistant E. coli; format: cell-based
[2] = system: IL-13 release from KU812 cells; test: IL-13 release assay in KU812 cells (PMA + ionomycin, IL-13 ELISA); format: cell-based, human; settings: first screening (Examples 1 and 3)

Compound: CC1(C)S[C@@H]2[C@H](NC(=O)[C@H](N)c3ccccc3)C(=O)N2[C@H]1C(=O)O [Amp, ampicillin]
- anti-microbial activity Against S. aureus (S. aureus; positive control 0.5 ug/ml): ++
- anti-microbial activity Against S. aureus (S. aureus; positive control 5 ug/ml): ++++
- anti-microbial activity Against S. aureus (S. aureus; positive control 50 ug/ml): ++++++
- anti-microbial activity Against E. coli (Amp-resistance) ([1]; positive control 0.5 ug/ml): −
- anti-microbial activity Against E. coli (Amp-resistance) ([1]; positive control 5 ug/ml): −
- anti-microbial activity Against E. coli (Amp-resistance) ([1]; positive control 50 ug/ml): +

Compound: C[C@@H]1C[C@H]2[C@@H]3CCC4=CC(=O)C=C[C@]4(C)[C@@]3(F)[C@@H](O)C[C@]2(C)[C@@]1(O)C(=O)CO [Dexamethasone]
- IL-13 release / inhibition, in words [2]: high and significant inhibition percentages

Reference: patent US10967031B2, “Synergistic herbal compositions with prebiotic properties for treatment of skin infections, allergies and inflammation” (priority 2010, dated 2021)
